Assay results published in PubChem BioAssay AID1508600 (Functional Genomics Laboratory (NCATS/FGL), 2020).
The whole screen tested about 53,000 sequences, of which about 3,700 (7%) were called active.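 Rule for the calls: active = gene knockdowns whose robust z-score for IL-1 alpha signal is at least 2 or at most -2, so actives lie on both sides; inactive = the rest.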 The list shows a part of the results.

Assay: Components of the Cytosolic LPS Sensing Pathway: Gene Identification via Genome-wide siRNA Screen;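 note: robust z of the log signal after scaling to non-targeting control siRNA wells of the plate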
Conditions: RAW264.7 macrophages, IL-1a HTRF, actives lie on both sides, screened at 100 nM (by protocol), cells primed 5 h with Pam3CSK4 first
Outline: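 RAW264.7; siRNA 100 nM final, RNAiMAX, 48h 37 degrees C; Pam3CSK4 5 h; LipidA + TransIT-TKO 24 h; IL-1a HTRF; CellTiter-Glo viability; robust z vs negative-control median.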
For GGCUUUCAUAAUAUAAGACTT against Kera, the z-score was inactive: 0.0662.
In the case of CGCAGUCCUUGACAUUAAATT against Rab3a, the z-score is reported as inactive: 0.0328.
For GGCCCAUGUAACAAAUAGATT against Tspan13, the z-score was inactive: -0.215.
With GGUUUUAAGCUUGCUUAUGTT against Ucma the z-score was inactive: 0.4.
For “CGUGCCUGCUCAAUUAAUUTT against 1700067P10Rik”, the z-score was active: 2.46.
For GGUCUACGCUAUCCUAGUUTT against Grin1, the z-score was active: -2.23.
In the case of CCUGAAUAUAUAGUGCAUGTT against Cend1, the z-score is reported as inactive: -0.265.
In the case of GGUGAUGUUUCUCACUGUCTT against A2m, the z-score is reported as inactive: -1.17.
With CCAAGAGCUGAAACAAGAATT against Ankrd12 the z-score was active: -2.01.
With GGCACUUUUAUUCUUCUCUTT against Zmpste24 the z-score was inactive: -0.362.
In the case of GCACUGAAAGUCUACGUCCTT against Rara, the z-score is reported as inactive: 0.207.
With GCACAUUGCUCACAAGCAUTT against Zfp942 the z-score was inactive: 0.669.
In the case of GGUGUUCCUGGUGAAGCAATT against Camk1g, the z-score is reported as inactive: 0.875.
For GGCGGAUAUCUUGAAAAACTT against Ntf3, the z-score was inactive: -0.0373.
With GCCUCAAGUUGAUAAGGAUTT against Ubqlnl the z-score was inactive: -0.689.
In the case of GGCUAUGGACCGAAAGAUUTT against Dgcr6, the z-score is reported as inactive: -1.42.
With CCUGACAGGUUUAUGUGAATT against Cbl the z-score was inactive: 0.836.
For GGCUAACUCCCAUAAAGAUTT against Ces4a, the z-score was inactive: -1.31.
For GCUGGAAAACCGACAACUCTT against Gripap1, the z-score was inactive: -0.175.
In the case of GGACCGACCAAGUUUUUCATT against Tm2d2, the z-score is reported as inactive: 0.997.
With GGUCUUUCAAGUUGCAUACTT against Lama1 the z-score was inactive: 0.491.
With GGUUAGACCAAUAAAAAGCTT against Pfdn1 the z-score was inactive: 0.154.
For GGCAAAUGGAAACAGCCAUTT against Serpina1d, the z-score was inactive: -1.56.
For GUUUUUCAUACAGUAGUAGTT against Vmn1r27, the z-score was inactive: 0.42.
In the case of CGUUGUUCUUAUCCUGAGGTT against Olfr448, the z-score is reported as inactive: -0.864.
For GAAGCCUAUUGCUCAAGAUTT against Fbxw24, the z-score was inactive: 0.896.
For CCGCCAUGACAUUAUGCUGTT against Klk15, the z-score was inactive: 0.433.
For CCUGUGCUCUUAUUAUCAATT against Rpp14, the z-score was inactive: 0.693.
With GGCUUUCAGUAAGAAGAUGTT against Snx33 the z-score was inactive: -1.24.
In the case of GCUGAAAUCUCCAAAUACCTT against Arl5b, the z-score is reported as inactive: 1.52.
With GGUUCUUUUUGGUUUAGGUTT against Tm9sf4 the z-score was inactive: 0.259.
With GGGUCCAAUAAACAUGUCUTT against B3galt4 the z-score was inactive: 0.234.
With GGAAAUGCAGUUGUGAAUGTT against Rab4a the z-score was active: -2.03.
In the case of CGGGAGACUGGUUAUCAACTT against Eipr1, the z-score is reported as inactive: -1.77.
In the case of “GGCCAUCUUGAAUUUUUUATT against 2410002F23Rik”, the z-score is reported as inactive: 0.0652.
With GGAAGGCCAUUUCAACUAATT against Olfr1367 the z-score was inactive: 1.54.
With GGGCACACUGAUGUGGUCATT against Fem1b the z-score was inactive: -1.55.
With GCACAAGCCUCAAGACGUATT against Mgat4b the z-score was inactive: 0.182.
For GGACGGAUCUGAAAGAUACTT against Zfp251, the z-score was inactive: 0.325.
With GGUGUUUUAUACACUCUGUTT against Mgme1 the z-score was inactive: -1.85.
With ACAAUGGUGAGUAAUAGCATT against Olfr730 the z-score was inactive: -0.0347.
For GGUCAUACACUUCUGCACATT against Ap5z1, the z-score was inactive: -0.805.
For “GCAAUUUCUAUUUGGUGGGTT against B630019K06Rik”, the z-score was inactive: -0.354.
In the case of “GGCAAGACCCAUUAAAUGATT against B230219D22Rik”, the z-score is reported as inactive: 0.951.
For GGUCUAUGCAAUAAAGGUUTT against Sphk2, the z-score was inactive: -0.351.
In the case of GCUCAAUCGAUACUCAGAUTT against Lzts1, the z-score is reported as inactive: -0.144.
In the case of GCAUCAUUAUCUCGGUACUTT against Izumo1, the z-score is reported as inactive: 1.71.
In the case of GGAUAUCAUCAGUUUGGUUTT against Iigp1b, the z-score is reported as inactive: -0.0729.
With GGAAGCAGCAAAGAAGUUGTT against Olfr1109 the z-score was inactive: 0.918.
For GGCAUCAUAAUGGCAUCGGTT against Aoc2, the z-score was inactive: -1.15.
For UUUGAACUUUCGAACCCGCTT against Tuba1c, the z-score was inactive: 1.89.
With GGCAAGGACUCCAAGGACATT against Wdr45 the z-score was inactive: -1.31.
For CCAAAAUGAGGGCAUCUAUTT against Mvp, the z-score was inactive: -1.7.
With GGAUUGUCGAAUGGGUGCUTT against Oard1 the z-score was inactive: -1.78.
For GGCUUGGUGAGCUACCUACTT against Wdr62, the z-score was inactive: -0.839.
With GGAAAUGUUGCCGUUGUCCTT against Mfsd8 the z-score was active: 2.13.
In the case of CCACUAUGAAUCGUGGUUCTT against Sp6, the z-score is reported as inactive: 0.731.
With GGCCGAAGAAUUCAUCUUUTT against Pomgnt2 the z-score was inactive: -0.339.
With GGGUCCUUUGUCACAUUCATT against Psmd7 the z-score was inactive: 1.34.
For GGAUUAAUGUUUCCUGACUTT against Mturn, the z-score was inactive: 0.704.
For GGUAUUCAAGGUAAGAAAGTT against Ercc5, the z-score was inactive: -1.14.
In the case of CCUUCAGAUCAUUCUUAGATT against Klhl9, the z-score is reported as inactive: 0.493.
With GCAAGUUUCACAGAAUGACTT against Loxl4 the z-score was inactive: 0.058.
With GCGCAGCACAGGUUUUGAATT against Klf10 the z-score was inactive: -0.217.
For GGCUGAGUUACGGUUAAAGTT against Ndufb5, the z-score was inactive: 0.187.
For GGUUUCUCGAGAAGUUACCTT against Nab1, the z-score was inactive: -1.24.
In the case of CCUCAGUGGUAUAGAGGUATT against Gpr84, the z-score is reported as inactive: 0.788.
In the case of GGAUUCUGAACACUUUUUCTT against Pot1a, the z-score is reported as active: -2.02.
For CCUACAGAGACUAUUCACUTT against Fiz1, the z-score was inactive: 1.34.
In the case of GCUCAGUAAUCUGAGGCCATT against Lox, the z-score is reported as active: -2.03.
In the case of CCGGCUAAACAUUAUUCAUTT against Fpgs, the z-score is reported as inactive: 1.85.
For CCUCAUGUCUGGCAUCUUGTT against Egr4, the z-score was inactive: -1.7.
With GGAAUAUAUCUCCAAACAGTT against Ccdc7b the z-score was inactive: -0.469.
With GGUAUAAAGGAUGCAUUCATT against Osmr the z-score was inactive: 0.512.
With GCCUUCUGCCGUUAUUAAUTT against Slc15a5 the z-score was inactive: 1.56.
With GGAAAAUGAGCAAGAAGAATT against Syt12 the z-score was inactive: -0.784.
In the case of GCUCAAACUUUACUAUACATT against Cdh6, the z-score is reported as inactive: -0.675.
In the case of GGACCUUCUAGAAGACAAGTT against Gna11, the z-score is reported as inactive: 1.31.
For GGACCAAGUAUCAUGAUGUTT against Zfp369, the z-score was inactive: 0.222.
For GGGAUGAAGACACGAUCAUTT against Sult2a8, the z-score was inactive: 1.26.
In the case of GGCCAGAACUACGAAGCCATT against Capn12, the z-score is reported as inactive: 0.981.
For CGAACAUUCCUUCCAUAACTT against Kcnd3, the z-score was inactive: 0.609.
With GGCUGAGAGUCCAAAAAGGTT against Dok3 the z-score was inactive: -0.126.
In the case of GGGUCUUGUUAAUCUGUAUTT against Med1, the z-score is reported as inactive: -0.318.
In the case of CCUUCCAUGGUGAGGAUAATT against Stim1, the z-score is reported as active: -2.
For GCUUGGAAGACAUUGACCCTT against Brsk2, the z-score was inactive: -0.996.
In the case of GGGUAUCAUUACAGAUACGTT against Tpbg, the z-score is reported as inactive: 0.277.
With GGAAGUCACUUGCCCAAGGTT against Prm2 the z-score was inactive: 0.757.
With GGCACUGCACUUUAACAUATT against Serpinb7 the z-score was inactive: -0.402.
For CCACCAUUCUACAUAAUCATT against Abl1, the z-score was inactive: 1.28.
In the case of GGAGAACCACUACAUGCAATT against Bcl2l1, the z-score is reported as inactive: 0.453.
For CCCUGUUACGAAGUUUAACTT against Slc17a7, the z-score was inactive: -1.27.
In the case of CCAAGGUCUAAAAAAAUAGTT against Adamts19, the z-score is reported as inactive: -0.907.
With GGAAAAAAGCCUCAUCGGATT against Wdr63 the z-score was inactive: 0.676.
With GGAGAAAGUCAUCUUUGAUTT against Cdk5rap2 the z-score was inactive: -0.41.
With CGCCUCACGAUUUUGAUGATT against Cert1 the z-score was inactive: -0.768.
With GGACGGGAUUGAGCCUAUGTT against Eif4e the z-score was inactive: 1.65.
In the case of GGUAUAGACUGGAAGUAUUTT against Dnajc3, the z-score is reported as inactive: 0.0873.
With GGCUAUGAAAGUGACAAUCTT against Tsen15 the z-score was active: -2.74.
For GCCUAUUGAGAUCUACGGCTT against Elac1, the z-score was inactive: 0.534.
For GCUACAAGAAAUCUUGAUGTT against Tspan3, the z-score was inactive: -0.0988.
For GCAAAGCUGAUGCGAGCCUTT against Znhit3, the z-score was inactive: -0.333.
In the case of CCAAUGCUUGUGAUAAGCCTT against Krt33a, the z-score is reported as inactive: -0.105.
In the case of GGUCAGUGGAGCUCUCUAUTT against Fam234a, the z-score is reported as inactive: 1.43.
With GGAGAAAACUUUCUGUGUGTT against Nrg1 the z-score was inactive: -0.887.
In the case of GGAUGAUUCUGGGUUACAGTT against Pwwp3a, the z-score is reported as active: -2.26.
For CCUCAUAGGAGAAUCUCCCTT against Plin5, the z-score was inactive: -0.905.
